In PubChem BioAssay AID493014 (National Center for Advancing Translational Sciences (NCATS), 2011):
Some of the results follow. Shown are side measurements of this screen, not its main read-out; they come without a call. Compounds called inactive in the main read-out are mostly missing here. Potencies come from curve fits of mixed quality, noted in brackets.

Assay: qHTS Assay to Find Inhibitors of Chronic Active B-Cell Receptor Signaling
Conditions: ABC-DLBCL IkBa-CBG/CBR reporter, luminescence ratio (green luciferase fused to IkBa over red control in TMD8 lymphoma cells), 4 h
Procedure, shortened: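 Cell line TMD8 (human ABC DLBCL), stably expressing tet-inducible CBG68-IkBa fusion and CBR; IMDM/0.5% FBS; cpd up to 46 uM; dox induction, 4 h, 37C/5% CO2; dual luminescence; green/red ratio; MG132 control.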

[1] = measured here: CBR red luminescence, cell number
[2] = measured here: IkBa-CBG green luminescence

With `O=C(Nc1nnc(-c2ccccc2)o1)c1cc(-c2cccs2)nc2ccccc12` as the compound, how does the AC50 [1] read?
The AC50 was 29.1 µM [falling, single point].

What about the AC50 [2] of the same compound?
The AC50 was 18.4 µM [falling, partial curve, poor fit].

Which AC50 [1] does the source give for `CC1CCN(C(=O)CC2C(=O)Nc3c2c(=O)n(C)c(=O)n3Cc2ccccc2)CC1` (stereo unspecified) here?
Its AC50 is 0.562 µM [falling, partial curve, poor fit].

With `CCN(CC(=O)Nc1ccc(NC(C)=O)cc1)CC(=O)Nc1cc(C)on1` as the compound, how does the AC50 [1] read?
The AC50 was 10.3 µM [rising, partial curve, poor fit].

Which AC50 [1] does the source give for `Cc1cc(C)c(C#N)c(SC(C(=O)NC(C)(C)C)c2ccccc2)n1` (stereo unspecified) here?
Its AC50 is 10 µM [rising, partial curve, poor fit].

With `Nc1cccc(-c2csc(-n3ncc(C(=O)O)c3C(F)(F)F)n2)c1` as the compound, how does the AC50 [1] read?
The AC50 was 2 µM [falling, full curve, poor fit].

With `COc1ccc(NCc2nnc(SCC(=O)Nc3ccccc3OC)o2)cc1` as the compound, how does the AC50 [1] read?
The AC50 was 29.1 µM [falling, single point].

With `CC(=O)C1=C(C)Nc2ncnn2C1c1ccccc1F` (stereo unspecified) as the compound, how does the AC50 [1] read?
Its AC50 is 1.26 µM [rising, full curve, poor fit].

For `Cc1ccc(-n2c(C)c(C)c3c(NCCO)ncnc32)cc1`, which AC50 [1] is on record?
The AC50 was 35.5 µM [rising, single point].

For `Cc1ccccc1S(=O)(=O)Cc1ccc(C(=O)N2CCN(c3ccccc3F)CC2)o1`, which AC50 [1] is on record?
Its AC50 is 0.631 µM [falling, full curve, poor fit].

With `COc1ccccc1NC(=S)NNC(=O)c1ccncc1` as the compound, how does the AC50 [1] read?
The AC50 was 31.6 µM [falling, single point].

With `CC[C@H]1OC(=O)[C@H](C)[C@@H](O[C@H]2C[C@@](C)(OC)[C@@H](O)[C@H](C)O2)[C@H](C)[C@@H](O[C@@H]2O[C@H](C)C[C@H](N(C)C)[C@H]2O)[C@](C)(O)C[C@@H](C)[C@@H]2N[C@@H](COCCOC)O[C@H]([C@H]2C)[C@]1(C)O` as the compound, how does the AC50 [1] read?
Its AC50 is 29.1 µM [falling, partial curve, poor fit].

With `O=C1c2ccc3c4c(ccc(c24)C(=O)N1CCCCO)C(=O)N(CCCCO)C3=O` as the compound, how does the AC50 [1] read?
Its AC50 is 8.91 µM [falling, partial curve, poor fit].

And the AC50 [2]?
Its AC50 is 6.31 µM [rising, partial curve, poor fit].

Which AC50 [1] does the source give for `O=C(Cc1c(F)cccc1Cl)Nc1nc2ccccc2s1` here?
Its AC50 is 15.8 µM [falling, single point].

With `COc1cccc(N2CCN(C(=O)CC(NC(=O)c3ccccc3)c3ccccc3)CC2)c1` (stereo unspecified) as the compound, how does the AC50 [1] read?
The AC50 was 23.1 µM [rising, single point].

With `Cc1ccc(NC(=O)c2snc3c(=O)[nH]cnc23)cc1C` as the compound, how does the AC50 [1] read?
Its AC50 is 2.06 µM [rising, partial curve, poor fit].

Which results are given for `COc1cc(OC)c2c(-c3ccccc3)cc(=O)oc2c1C(CCN1CCOCC1)c1ccc2c(c1)OCO2` (stereo unspecified)?
AC50 [1]: 29.1 µM [falling, single point]; AC50 [2]: 10.3 µM [falling, partial curve, poor fit]

With `CSC1=NCCN1C(=O)c1c(F)cccc1F` as the compound, how does the AC50 [1] read?
Its AC50 is 29.1 µM [rising, single point].

Which AC50 [1] does the source give for `CC(C)COC(=O)c1ccc(NC(=O)C2C3CCC(C3)C2C(=O)O)cc1` (stereo unspecified) here?
The AC50 was 2 µM [rising, full curve, poor fit].

For `O=c1c(-c2nc3ccccc3o2)c2oc3ccccc3n2c2ccccc12`, which AC50 [1] is on record?
Its AC50 is 29.1 µM [rising, single point].

Which AC50 [1] does the source give for `COc1ccc(CCNc2cc(C)nc3c(-c4ccccc4)cnn23)cc1OC` here?
Its AC50 is 32.6 µM [falling, single point].

What about the AC50 [2] of the same compound?
The AC50 was 20.6 µM [rising, partial curve, poor fit].

Which AC50 [2] does the source give for `N#Cc1ccccc1NC(=O)CSC1=Nc2ccccc2C2CC=NN12` (stereo unspecified) here?
Its AC50 is 22.4 µM [falling, single point].

With `CCOc1ccc(NC(=O)CN(C)C(=O)c2ccc(OCc3ccccc3)c(OC)c2)cc1OCC` as the compound, how does the AC50 [1] read?
Its AC50 is 5.8 µM [falling, full curve, poor fit].

Which AC50 [1] does the source give for `CC(C)c1ccc(NC(=O)/C(C#N)=C/c2ccncc2)cc1` here?
Its AC50 is 2.82 µM [rising, full curve, poor fit].

Which AC50 [1] does the source give for `Cc1ccc(NC(=O)C(=O)NCc2ccncc2)cc1` here?
The AC50 was 11.2 µM [falling, partial curve, poor fit].

Which AC50 [1] does the source give for `CCc1cc(Cn2nc(-c3ccccc3)cc2C(=O)NCC2CC2)on1` here?
Its AC50 is 18.4 µM [rising, partial curve].

Which AC50 [1] does the source give for `Fc1ccc(C2CC(c3ccco3)=Nc3ccccc3S2)cc1` (stereo unspecified) here?
Its AC50 is 12.6 µM [falling, single point].

For `C=CCn1c(SCc2ccccc2)nnc1-c1cccnc1`, which AC50 [1] is on record?
Its AC50 is 0.82 µM [rising, full curve].

For `CC(=O)Nc1ccc(C(=O)OCCc2ccccc2)cc1`, which AC50 [1] is on record?
Its AC50 is 0.562 µM [rising, full curve, poor fit].

Which AC50 [1] does the source give for `C/C=C/c1ccc(OCCOc2cccc3cccnc23)c(OC)c1` here?
Its AC50 is 5.17 µM [rising, partial curve].

Which AC50 [1] does the source give for `O=C(NCCc1ccccc1)C1CCN(S(=O)(=O)N2CCCC2)CC1` here?
Its AC50 is 16.4 µM [rising, single point].

For `CN(C)c1ccc(CNn2cnnc2SCc2ccc(F)cc2)cc1`, which AC50 [1] is on record?
Its AC50 is 0.82 µM [falling, partial curve, poor fit].

With `Cc1ccc2nc(NC(=O)C3CC3C)sc2c1` (stereo unspecified) as the compound, how does the AC50 [1] read?
Its AC50 is 11.2 µM [falling, partial curve].

Which AC50 [1] does the source give for `NC(=S)N/N=C1\CC(c2ccc3c(c2)OCCO3)Oc2ccc(F)cc21` (stereo unspecified) here?
The AC50 was 12.6 µM [falling, single point].

With `CCOC(=O)C1=CN(Cc2cccc(-c3cccnc3)c2)S(=O)(=O)N(CC)C1C` (stereo unspecified) as the compound, how does the AC50 [1] read?
The AC50 was 2.59 µM [rising, partial curve, poor fit].

For `N=c1oc2ccccc2cc1C(=O)Nc1ccccc1`, which AC50 [1] is on record?
The AC50 was 0.501 µM [falling, partial curve, poor fit].

For `COc1ccccc1NC(=O)CSc1nc2sc(C)c(C)c2c(=O)n1Cc1ccco1`, which AC50 [1] is on record?
Its AC50 is 11.2 µM [falling, partial curve, poor fit].

For `COc1ccc(Cn2c(CCC(=O)Nc3ccccc3OC)nc3cccnc32)cc1`, which AC50 [1] is on record?
The AC50 was 35.5 µM [falling, partial curve, poor fit].

Which AC50 [1] does the source give for `O=C(/C=C/c1ccco1)Oc1cc(Br)cc(/C=N/NC(=O)c2ccccc2O)c1` here?
The AC50 was 5.8 µM [falling, partial curve].

For `Nc1nc(-c2ccc3c(c2)CCCC3)cs1`, which AC50 [1] is on record?
The AC50 was 3.16 µM [rising, partial curve, poor fit].

For `Cc1cc(C)c(NC2=NCC(=O)N2C2CCCCC2)c(C)c1`, which AC50 [1] is on record?
Its AC50 is 7.31 µM [rising, partial curve, poor fit].

For `CCNc1nc(NCc2ccccc2)nc(Oc2ccc(=O)[nH]n2)n1`, which AC50 [1] is on record?
The AC50 was 4.61 µM [rising, full curve, poor fit].

With `COc1cccc(NCc2cc(=O)oc3cc(-c4ccccc4)c(O)cc23)c1` as the compound, how does the AC50 [1] read?
Its AC50 is 29.1 µM [falling, single point].

Which AC50 [1] does the source give for `Oc1cccc(Nc2nc(-c3ccccc3Cl)nc3ccccc23)c1` here?
Its AC50 is 12.6 µM [falling, partial curve].

With `Cc1ccnc2nc(C(=O)OCCOc3ccc(Cl)cc3)nn12` as the compound, how does the AC50 [1] read?
Its AC50 is 25.1 µM [falling, single point].

For `COC(=O)c1nc(-n2nc(C)cc2C)ccc1Cl`, which AC50 [1] is on record?
Its AC50 is 3.26 µM [falling, single point].

Which AC50 [1] does the source give for `O=C(CSc1n[nH]c(-c2cccs2)n1)N1CCOCC1` here?
The AC50 was 13 µM [rising, partial curve, poor fit].

Which AC50 [1] does the source give for `CC(=O)N1C=CN(C(C)=O)C(c2cn(C)c3ccccc23)C1c1cn(C)c2ccccc12` (stereo unspecified) here?
The AC50 was 6.51 µM [rising, single point].

Which AC50 [1] does the source give for `COC(/C=C/Nc1ccc(C)cc1)=C(C#N)C#N` here?
The AC50 was 0.146 µM [rising, full curve, poor fit].

Which AC50 [1] does the source give for `CC1(C2CC2)NC(=O)N(CC(=O)N2CCN(c3ccccc3)CC2)C1=O` (stereo unspecified) here?
The AC50 was 29.1 µM [rising, single point].

With `Cc1cccnc1Nc1nc(-c2ccc(F)cc2)cs1` as the compound, how does the AC50 [1] read?
Its AC50 is 12.6 µM [falling, single point].

With `CC(/C=C/C=C/c1ccccc1)=N/NC(=O)c1ccc2c(c1)OCCO2` as the compound, how does the AC50 [1] read?
The AC50 was 35.5 µM [falling, single point].

Which AC50 [1] does the source give for `CCN(CC)CCNC(=O)c1ccc2c(=O)n3nc(Nc4ccccc4)sc3nc2c1` here?
The AC50 was 8.91 µM [falling, partial curve].

Which AC50 [1] does the source give for `Cc1ccc2nc(NC(=O)C3CCN(S(=O)(=O)c4cc([N+](=O)[O-])ccc4Cl)CC3)sc2c1` here?
The AC50 was 5.17 µM [falling, partial curve].

What about the AC50 [2] of the same compound?
The AC50 was 29.1 µM [rising, partial curve, poor fit].

For `NS(=O)(=O)c1cccc(NC(=O)c2ccno2)c1`, which AC50 [1] is on record?
Its AC50 is 15.8 µM [rising, single point].

For `CC(=NCc1ccco1)c1c(C(F)(F)F)[nH]n(-c2nc3ccccc3s2)c1=O`, which AC50 [1] is on record?
The AC50 was 1.84 µM [falling, full curve, poor fit].

With `CCSc1nnc(SCC(=O)Nc2cc(C)on2)s1` as the compound, how does the AC50 [1] read?
The AC50 was 6.51 µM [rising, partial curve, poor fit].

With `CCC(C)NCCOCCOc1ccc(Br)cc1C` (stereo unspecified) as the compound, how does the AC50 [1] read?
Its AC50 is 29.1 µM [falling, single point].

With `COCc1ccc(C(=O)N2CCCC(C(=O)c3ccc(SC)cc3)C2)s1` (stereo unspecified) as the compound, how does the AC50 [1] read?
The AC50 was 12.6 µM [falling, partial curve, poor fit].

For `Cc1cccc(OCCSc2ncnc3nc[nH]c23)c1`, which AC50 [1] is on record?
Its AC50 is 0.1 µM [rising, full curve, poor fit].

For `O=C(Nc1cccc(-c2cnc3ccccc3n2)c1)c1ccco1`, which AC50 [1] is on record?
Its AC50 is 32.6 µM [falling, single point].

With `O=C(Nc1ccccn1)c1ccc(=O)[nH]n1` as the compound, how does the AC50 [1] read?
Its AC50 is 2.59 µM [rising, partial curve, poor fit].
